Where “and” joins values, the source holds several entries; their conditions need not be identical. Equal entries are not always repeated. The list shows a part of the results. Each value is one well over the wells without odorant, computed here; the data are noisy.
Assays:
Assay in all cases: odorant receptor activation (CRE luciferase / Renilla) (fold of no-odor wells); higher = more activation
Settings in all cases: 100 µM
[1] = system: OR1N2 W23R/V230G/T287M clone 1105
[2] = system: OR1N2 W37R/V244G/T301M clone 1350
OR1N2 clone 1505 = system: OR1N2 clone 1505
[3] = system: OR1Q1 Q24R/I163M clone 1103
OR1S1 clone 1455 = system: OR1S1 clone 1455
OR1S2 I46T clone 1137 = system: OR1S2 I46T clone 1137
OR2A1 clone 1078 = system: OR2A1 clone 1078
OR2A12 clone 1085 = system: OR2A12 clone 1085
OR2A14 Indel clone 1540 = system: OR2A14 Indel clone 1540
OR2A14 clone 1083 = system: OR2A14 clone 1083
OR2A2 F280L clone 1541 = system: OR2A2 F280L clone 1541
OR2A2 clone 1476 = system: OR2A2 clone 1476
OR2A25 clone 1387 = system: OR2A25 clone 1387
OR2A4 clone 1386 = system: OR2A4 clone 1386
OR2A42 clone 1565 = system: OR2A42 clone 1565
OR2A5 clone 1437 = system: OR2A5 clone 1437
OR2A7 clone 1077 = system: OR2A7 clone 1077
OR2A7 clone 1543 = system: OR2A7 clone 1543
OR2AE1 I77T clone 1079 = system: OR2AE1 I77T clone 1079
OR2AG1 clone 1112 = system: OR2AG1 clone 1112

SMILES | odorant receptor activation [1] | odorant receptor activation [2] | odorant receptor activation (OR1N2 clone 1505) | odorant receptor activation [3] | odorant receptor activation (OR1S1 clone 1455) | odorant receptor activation (OR1S2 I46T clone 1137) | odorant receptor activation (OR2A1 clone 1078) | odorant receptor activation (OR2A12 clone 1085) | odorant receptor activation (OR2A14 Indel clone 1540) | odorant receptor activation (OR2A14 clone 1083) | odorant receptor activation (OR2A2 F280L clone 1541) | odorant receptor activation (OR2A2 clone 1476) | odorant receptor activation (OR2A25 clone 1387) | odorant receptor activation (OR2A4 clone 1386) | odorant receptor activation (OR2A42 clone 1565) | odorant receptor activation (OR2A5 clone 1437) | odorant receptor activation (OR2A7 clone 1077) | odorant receptor activation (OR2A7 clone 1543) | odorant receptor activation (OR2AE1 I77T clone 1079) | odorant receptor activation (OR2AG1 clone 1112)
CS [methanethiol] | 1.09 | 0.901 | 0.985 | 1.06 | 0.539 | 1.08 | 1.01 | 1.15 | 0.887 | 0.979 | 0.922 | 1.03 | 1.22 | 0.815 | 1.05 | 1.01 | 0.847 | 0.7 | 0.994 | 1.12
CCCCOC(C)=O [butyl acetate] | 1.38 | 0.951 | 1.06 | 1.12 | 1.37 | 1.05 | 1.08 | 1.45 | 0.912 | 1.13 | 0.823 | 1.15 | 0.257 | 0.182 | 0.723 | 0.312 | 0.95 | 0.751 | 1.2 | 1.04
CCOc1cc(C=O)ccc1O [ethyl vanillin] | – | 1.4 and 2.16 and 1.15 | 1.39 and 2.35 and 1.02 | 0.391 and 1.17 | 0.794 | 1.5 and 1.29 | 1.86 and 0.844 | 2.38 and 1.02 | 1.47 | 0.463 and 1.11 | 1.15 | 1.03 and 1.3 and 1.52 | 0.999 and 1.12 | 0.987 and 1.13 | 0.722 | 1.24 and 1.4 | 1.02 | 1.2 | 1.51 and 1.15 | 0.752 and 1.1
CCC(C)=O [2-butanone] | 4.49 | 1.29 | 1.05 | 16.9 | 0.789 | 1.11 | 3.77 | 3.07 | 1.21 | 2.34 | 1.2 | 1.05 | 0.967 | 1.11 | 0.534 | 0.648 | 3.8 | 1.17 | 22.8 | 7.53
